Among the data in PubChem BioAssay AID977622 (Broad Institute, 2014) are activity change values, retold here.

A short description of test [1]: wild-type E. coli growth inhibition versus h38 humanized strain – h38 mutant RFP, wild-type GFP, cherry-pick, dose response (AID 977622). The settings on record: E. coli mixed culture, 24 h, total growth OD600 at 50 uM.
Test [2] deals with E. coli h38 humanized mutant ribosome RFP fluorescence, mixed culture, 24 h. The test is described as above. Particulars: h38 mutant RFP at 50 uM.

This is one part of the list. The main result of the screen is listed elsewhere. These columns were measured beside it and carry no call.

Take `COc1ccc(C(=O)Nc2ccc3nc(C)sc3c2)cc1OC`: in test [1], the activity change is -31.8%.
Turning to `COC(=O)C1CCN(C(=O)c2ccc(OC)c(S(=O)(=O)N3CCCc4ccccc43)c2)CC1`, the activity change is -15.7% in test [1] and -13.1% in test [2].
In the same order, the values of `CCc1cccc(NC(=O)CN(C)S(=O)(=O)c2cccc3cccnc23)c1` are -13.9% and -22.2%.
As for `OCCCc1cn(-c2ccccc2)c2ccccc12`, the activity change was -80.7% in test [1] and -3.09% in test [2].
Taken in the same sequence, the figures for `Clc1ccc(-c2cn(-c3ccccc3)c3[n+]2CCS3)cc1` were -10.6% and 28.5%.
Taken in the same sequence, the figures for `CCOc1ccc(NC(=O)CN2C(=O)COc3ccc(S(=O)(=O)N4CCCC4)cc32)cc1` were -41.6% and -13%.
In the same order, the values of `O=S(=O)(NC1c2cccc3cccc(c23)C1Sc1ncccn1)c1ccccc1` (stereo not given) are -50.4% and -24.1%.
As for `Cc1nn(Cc2cccc(F)c2)c(C)c1NC(=O)c1c(Cl)cnn1C`, the activity change in test [1] came to 3.08%; in test [2] it was 3.5%.
For `CCc1nn2cc(C(=O)c3cc(Cl)ccc3O)cnc2c1-c1ccc(F)cc1`, the activity change in test [1] was -19.2%.
As for `FC(F)(F)c1ccc(Cl)c(-n2c(Cc3cccs3)n[nH]c2=S)c1`, the results for the activity change in test [1] and in test [2] were -47.4% and -4.18%, respectively.
For the compound `Cc1ccsc1C(=O)OCC(=O)N1CCc2ccccc2C1`, the activity change in test [1] was -19.3%; in test [2] it was 3.61%.
Taken in the same sequence, the figures for `O=C(Cn1c(CO)nc2ccccc21)NCCc1ccc(F)cc1` were -40.7% and 47.8%.
Taken in the same sequence, the figures for `CCN(CC)c1nc(Oc2ccc(C(=O)OC)cc2)nc(N2CCOCC2)n1` were -15.4% and 3.47%.
On to `CC(C)C[C@H]1COc2cc(Br)ccc2S(=O)(=O)N1`, for which the activity change in test [1] was -43.1%; in test [2], -40.6%.
Consider `CC(=O)Nc1ccc2nc3ccccc3nc2c1`, for which the activity change was -14.9% in test [1] and 3.93% in test [2].
In the same order, the values of `Cc1cc2c(sc3ccccc32)c(C)n1` are -35.3% and -41%.
Regarding `CCc1ccn2cc(-c3ccc4c(c3)OCO4)nc2c1`, in test [1], the activity change is -39.5%.
On the same count and under the same terms, next, `COc1ccc(NC(=O)CSc2nnc(Cc3ccccc3)o2)c(OC)c1`: -23.6%.
As to `CCc1nnc(NS(=O)(=O)c2ccc(NC(=O)c3cccc(Cl)c3)cc2)s1`, the activity change is -37% in test [1] and 17.4% in test [2].
Taken in the same sequence, the figures for `COc1ccccc1-c1nnc(C2CCN(S(=O)(=O)c3cccc([N+](=O)[O-])c3)CC2)o1` were -19.2% and -6.33%.
In the case of `O=C1CCCN1c1ccc([N+](=O)[O-])cc1`, the activity change was -15.5% in test [1] and 11.8% in test [2].
In the same order, the values of `Cc1cc2oc(C(=O)N3CCN(Cc4ccccc4)CC3)c(C)c2cc1C` are -89.7% and -0.078%.
In the same order, the values of `COCCNC(=O)c1cc2c(-c3ccc(Cl)cc3)nn(C)c2s1` are -63% and 39.6%.
Taken in the same sequence, the figures for `COc1cccc(Nc2nc(N)c([N+](=O)[O-])c(N3CCOCC3)n2)c1` were -20.7% and -9.44%.
With `Cc1occc1C(=O)Nc1ccc2c(c1)CCC2`, the values for the activity change in test [1] and in test [2] were -35.6% and -6.47%, respectively.
Taken in the same sequence, the figures for `COCC#Cc1ccc2c(c1)O[C@@H](CN(C)S(=O)(=O)c1cccc(F)c1)[C@@H](C)CN([C@H](C)CO)S2(=O)=O` were -41.9% and 0.571%.
In the same order, the values of `COc1ccccc1OCC(=O)Nc1ccc(S(=O)(=O)N2CCCCCC2)cc1` are -28% and 5.36%.
Taken in the same sequence, the figures for `CN1CCN(C(=O)C[C@H]2CC[C@H]3[C@@H](COC[C@H](O)CN3C(=O)Nc3ccc(Cl)cc3)O2)CC1` were -68% and 60.1%.
For `COc1cc(-c2cc3nc(NCCc4ccncc4)ccn3n2)cc(OC)c1OC`, the activity change was -37.7% in test [1] and -28.6% in test [2].
Taken in the same sequence, the figures for `COc1ccc(/C=C/c2nc3ccccc3n2Cc2ccccc2OC)cc1` were -32.5% and 32.2%.
Turning to `COCC(=O)N1[C@@H]2CN(C(=O)Nc3ccccc3F)c3ccccc3[C@@H]2[C@@H]1CO`, the values for the activity change in test [1] and in test [2] were -1.19% and 10.2%, respectively.
In the same order, the values of `Cc1ccc(NC(=O)CN(C)C(=O)Cc2coc3cc(C)c(C)cc23)cc1` are -62.5% and 57.7%.
Take `Cc1cc(C)c(C#N)c(N2CCN(c3ccccc3)CC2)n1`: the activity change in test [1] was -66%; in test [2], 22%.
In the same order, the values of `O=C(c1csc(Nc2cccc3ccccc23)n1)N1CCCC1` are -61% and 93.5%.
Regarding `Cc1cc(C)cc(NC(=O)c2cccc(NC(=O)c3ccco3)c2)c1`, the activity change in test [1] is -56.8%; in test [2], -17.6%.
In the same order, the values of `CN(C(=O)COc1ccccc1C(=O)NCCOc1ccccc1)c1ccccc1` are -17.2% and 6.79%.
In the same order, the values of `O=C(Nc1cccc(Cl)c1)N1C[C@H]2[C@@H](c3ccccc31)[C@@H](CO)N2C(=O)c1ccncc1` are -15.9% and 13.2%.
Taken in the same sequence, the figures for `Cc1ccc(Cc2c(-c3cccc(Br)c3)nc3ccc(C)cn23)cc1` were -6.5% and 1.94%.
Consider `CC(C)C#Cc1ccc([C@@H]2[C@H](CO)N3CCCCN(S(=O)(=O)Cc4ccccc4)C[C@@H]23)cc1`, for which the values for the activity change in test [1] and in test [2] were -50.5% and -52.3%, respectively.
For the compound `CC(C)CC#Cc1ccc([C@H]2[C@@H](CO)N3CCCCN(S(=O)(=O)Cc4ccccc4)C[C@H]23)cc1`, the activity change in test [2] is -76.7%.
On to `Cc1c(Cc2ccccc2)sc(NC(=O)Cc2ccccc2)c1C(N)=O`, for which the activity change in test [1] was -6.82%; in test [2] it was 69.7%.
Turning to `COc1cccc(NC(=O)CN(C)CC(=O)Nc2ccc(Br)cc2)c1`, the activity change in test [1] is -32.7%.
Same read-out and setting: the figure for `Nc1ccccc1Nc1ccc([N+](=O)[O-])cc1[N+](=O)[O-]` is -10.3%.
As to `CCc1ccc2[nH]c(C(=O)Nc3ccc4c(c3)OCO4)cc2c1`, the activity change in test [2] was -20.7%.
In the case of `C[C@@H]1CCCCO[C@@H](CN(C)C(=O)c2ccccc2)[C@H](C)CN([C@@H](C)CO)C(=O)c2cc(NC(=O)c3ccccc3)ccc2O1`, the activity change in test [1] was -8.14%; in test [2], 4.93%.
For the compound `O=C(NCCCCc1ccccc1)c1cccc(NC(=O)C2CCCCC2)c1`, the activity change in test [1] is -49.7%.
Consider `Cc1cc(C(=O)Nc2ccc(Cl)cc2)c(C)n1Cc1cccs1`, for which the activity change is -8.24% in test [1] and 13.4% in test [2].
Consider `CN(Cc1ccc(F)cc1)C(=O)CN1CCN(S(=O)(=O)c2ccc3c(c2)OCCCO3)CC1`, for which the activity change in test [1] was -43.5%.
As for `Cn1nc(C(F)(F)F)c2cc(C(=O)Nc3ccc(C(F)(F)F)cc3)sc21`, the figures for the activity change in test [1] and in test [2] were -64.8% and -62.6%, respectively.
On to `CN(C(=O)CN1C(=O)NC2(CCc3ccccc32)C1=O)C1CCCCC1` (stereo not given), for which the activity change in test [1] is -17.8%; in test [2], 0.094%.
Consider `O=C(O)c1cccnc1SCc1ccccc1Cl`, for which the activity change in test [1] was -58.8%; in test [2], -20.4%.
Regarding `COCCCNc1ccn2nc(-c3ccccc3)cc2n1`, the activity change in test [1] is -0.707%.
For the compound `CCOC(=O)C1NN=C(C(=O)c2ccccc2)C1c1ccc(OC)cc1` (stereo not given), the figures for the activity change in test [1] and in test [2] were -3.12% and -12.8%, respectively.
Taken in the same sequence, the figures for `Cc1cccc(-c2ccc([C@H]3[C@@H](CO)N4CCCCN(S(=O)(=O)c5ccccc5C)C[C@H]34)cc2)c1` were -66.5% and 114%.
Taken in the same sequence, the figures for `CCc1cc2cc(OC)ccc2nc1SCC(=O)Nc1cc(OC)c(OC)cc1C(=O)O` were -54.3% and -29.1%.
In the same order, the values of `COC(=O)[C@H](Cc1c[nH]c2ccccc12)NCc1cccc(B(O)O)c1` are -18.9% and 7.03%.
`COc1ccc(S(=O)(=O)N2CCCCN3[C@@H](CO)[C@H](c4ccc(C#CC(C)C)cc4)[C@@H]3C2)cc1`: the activity change in test [1] was -63%; in test [2] it was -2.31%.
In the same order, the values of `COC(=O)c1ccc2nc(-c3ccc(OC)c(OC)c3)c(Cc3ccc(C)cc3)n2c1` are -18% and -4.27%.
